# Measured values taken from patent US9487546B2, “Solid forms of tenofovir” (Gilead Sciences, Inc., priority 2014, dated 2016).
# Assay: Filtration time in the plant demonstration
compound,measurement,setting,value
C[C@H](Cn1cnc2c(N)ncnc21)OCP(=O)(O)O [Form 2431-HC-1P],Filtration Time,"plant demonstration, 146 kg starting material input",11 h
same,filtration time relative to average filtration time of the 40 batches,"plant scale, contract manufacturing organization",approximately ⅓
